Source: the supplement of paper PMC10735217
Counter-ions that a name gives are not always drawn. The list shows a part of the results. This data set is noisy: repeats of one test often differ as much as different tests do.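 The human kidney-derived cells carry a stably integrated construct of eight TEAD-binding elements driving luciferase, read by luminescence in a drug-repurposing library screen. A compound counts as a hit when its signal is more than five robust Z scores above the plate mean.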

Tested on: HEK293A TEAD-LUC reporter
Assay: TEAD-luciferase reporter activity (YAP activation), robust Z score vs plate; higher = stronger YAP/TEAD activation
Conditions: 24 h

SMILES: CO[C@@H]1COCC[C@@H]1N[C@@H]1CC[C@@](C(=O)N2C[C@@H]3C[C@H]2CN3c2cc(C(F)(F)F)ncn2)(C(C)C)C1
- TEAD-luciferase reporter activity (compound concentration: 200 nM): inactive: -0.464
- TEAD-luciferase reporter activity (compound concentration: 2 uM): inactive: -2.15
- TEAD-luciferase reporter activity (compound concentration: 10 uM): inactive: -1.17

SMILES: CSc1ccc(C(=O)c2nc(O)[nH]c2C)cc1 [enoximone]
- TEAD-luciferase reporter activity (compound concentration: 200 nM): inactive: 0.715
- TEAD-luciferase reporter activity (compound concentration: 2 uM): inactive: -1.92
- TEAD-luciferase reporter activity (compound concentration: 10 uM): inactive: 1.12

SMILES: C=CC(=O)N1CC/C(=C\c2ccc(F)c([N+](=O)[O-])c2)C(=O)/C(=C/c2ccc(F)c([N+](=O)[O-])c2)C1
- TEAD-luciferase reporter activity (compound concentration: 200 nM): inactive: 0.445
- TEAD-luciferase reporter activity (compound concentration: 2 uM): inactive: -2.74
- TEAD-luciferase reporter activity (compound concentration: 10 uM): inactive: -0.489

SMILES: CC(C)CCN1CCCCC12Cc1ccccc1CNC2=O (stereo not drawn)
- TEAD-luciferase reporter activity (compound concentration: 200 nM): inactive: 0.999
- TEAD-luciferase reporter activity (compound concentration: 10 uM): inactive: 0.916

SMILES: O=C1N=NC(=O)c2c1nc1cc(Cl)ccc1c2O
- TEAD-luciferase reporter activity (compound concentration: 200 nM): inactive: 1.75
- TEAD-luciferase reporter activity (compound concentration: 2 uM): inactive: 1.34
- TEAD-luciferase reporter activity (compound concentration: 10 uM): inactive: -0.528

SMILES: CS(=O)(=O)Nc1cc2occ(NC=O)c(=O)c2cc1Oc1ccccc1 [Iguratimod]
- TEAD-luciferase reporter activity (compound concentration: 200 nM): inactive: -0.715
- TEAD-luciferase reporter activity (compound concentration: 2 uM): inactive: 2.67
- TEAD-luciferase reporter activity (compound concentration: 10 uM): inactive: -2.37

SMILES: C=CCSCC1Nc2cc(Cl)c(S(N)(=O)=O)cc2S(=O)(=O)N1 (stereo not drawn)
- TEAD-luciferase reporter activity (compound concentration: 200 nM): inactive: 2.96
- TEAD-luciferase reporter activity (compound concentration: 2 uM): inactive: -1.06
- TEAD-luciferase reporter activity (compound concentration: 10 uM): inactive: -0.0554

SMILES: N/C(=N\OCC(O)CN1CCCCC1)c1cccnc1 (stereo not drawn)
- TEAD-luciferase reporter activity (compound concentration: 200 nM): inactive: -0.454
- TEAD-luciferase reporter activity (compound concentration: 2 uM): inactive: -1.24
- TEAD-luciferase reporter activity (compound concentration: 10 uM): inactive: 4.38

SMILES: Cc1ccc(-c2cccc(CN3CCCC(NC(=O)c4cccc(Cl)c4)C3)c2)cc1Cl (stereo not drawn)
- TEAD-luciferase reporter activity (compound concentration: 200 nM): active: 6.98
- TEAD-luciferase reporter activity (compound concentration: 10 uM): inactive: 0.562

SMILES: CC/C(=C(\c1ccccc1)c1ccc(OCCN(C)C)cc1)c1ccccc1 [Tamoxifen . citrate]
- TEAD-luciferase reporter activity (compound concentration: 200 nM): inactive: -1.24
- TEAD-luciferase reporter activity (compound concentration: 10 uM): inactive: 2.89

SMILES: CC/C(=C(\c1ccccc1)c1ccc(OCCN(C)C)cc1)c1ccccc1 [Tamoxifen citrate]
- TEAD-luciferase reporter activity (compound concentration: 2 uM): inactive: -0.137

SMILES: CCCn1c(=O)c2[nH]c(-c3cnn(Cc4ccccc4)c3)nc2n(CCC)c1=O
- TEAD-luciferase reporter activity (compound concentration: 200 nM): inactive: -1.27
- TEAD-luciferase reporter activity (compound concentration: 2 uM): inactive: 0.164
- TEAD-luciferase reporter activity (compound concentration: 10 uM): inactive: 2.38

SMILES: CO/N=C(\C(=O)N[C@@H]1C(=O)N2C(C(=O)O)=CCSC12)c1csc(N)n1 (stereo partly drawn) [ceftizoxime]
- TEAD-luciferase reporter activity (compound concentration: 200 nM): inactive: -0.726
- TEAD-luciferase reporter activity (compound concentration: 2 uM): inactive: -0.27
- TEAD-luciferase reporter activity (compound concentration: 10 uM): inactive: 1.58

SMILES: O=c1cc(NC2CCN(CCCc3ccccc3)CC2)c2ccc(Cl)cc2o1
- TEAD-luciferase reporter activity (compound concentration: 200 nM): inactive: -0.602
- TEAD-luciferase reporter activity (compound concentration: 2 uM): inactive: -2.12
- TEAD-luciferase reporter activity (compound concentration: 10 uM): inactive: 0.976

SMILES: CC(=O)NC[C@H]1CN(c2ccc(N3CCN(Cc4ccc([N+](=O)[O-])o4)CC3)c(F)c2)C(=O)O1 [Ranbezolid hydrochloride]
- TEAD-luciferase reporter activity (compound concentration: 200 nM): inactive: -0.349
- TEAD-luciferase reporter activity (compound concentration: 2 uM): inactive: -1.2
- TEAD-luciferase reporter activity (compound concentration: 10 uM): inactive: 2.51

SMILES: Cn1c(NC[C@@H](N)Cc2ccccc2)nc(-c2ccncc2)c(-c2ccc3ccccc3c2)c1=O
- TEAD-luciferase reporter activity (compound concentration: 200 nM): inactive: -2.94
- TEAD-luciferase reporter activity (compound concentration: 2 uM): inactive: -2.08
- TEAD-luciferase reporter activity (compound concentration: 10 uM): inactive: -1.02

SMILES: CCCCN1C(=O)C2C(=O)N(CCCCN3CCN(c4ccccc4OC)CC3)C(=O)C(C1=O)C2(C)C [Umespirone]
- TEAD-luciferase reporter activity (compound concentration: 200 nM): inactive: -0.115
- TEAD-luciferase reporter activity (compound concentration: 2 uM): inactive: -0.591
- TEAD-luciferase reporter activity (compound concentration: 10 uM): active: 7.42

SMILES: CC1CCCC(C)(C)C1CCC(C)[N+](C)(C)CCCCCC[N+](C)(C)C(C)CCC1C(C)CCCC1(C)C (stereo not drawn)
- TEAD-luciferase reporter activity (compound concentration: 200 nM): inactive: -2.43
- TEAD-luciferase reporter activity (compound concentration: 2 uM): inactive: -0.00628
- TEAD-luciferase reporter activity (compound concentration: 10 uM): inactive: 1.51

SMILES: COc1ccc2c(c1)c(CC(=O)Oc1ccc(C#N)cc1)c(C)n2C(=O)c1ccc(Cl)cc1
- TEAD-luciferase reporter activity (compound concentration: 200 nM): inactive: -2.45
- TEAD-luciferase reporter activity (compound concentration: 2 uM): inactive: 0.591
- TEAD-luciferase reporter activity (compound concentration: 10 uM): inactive: 0.238

SMILES: COc1ccc(CN2CCN(C(c3ccc(F)cc3)c3ccc(F)cc3)CC2)c(OC)c1OC [lomerizine HCl]
- TEAD-luciferase reporter activity (compound concentration: 2 uM): inactive: 3.24

SMILES: COc1ccc(CN2CCN(C(c3ccc(F)cc3)c3ccc(F)cc3)CC2)c(OC)c1OC
- TEAD-luciferase reporter activity (compound concentration: 200 nM): inactive: -1.91
- TEAD-luciferase reporter activity (compound concentration: 10 uM): inactive: -0.154

SMILES: CCCCCCCCc1ccc(-c2noc(C[C@@H]3CCCN3C(=N)N)n2)cc1
- TEAD-luciferase reporter activity (compound concentration: 200 nM): inactive: -0.815
- TEAD-luciferase reporter activity (compound concentration: 2 uM): inactive: 0.519
- TEAD-luciferase reporter activity (compound concentration: 10 uM): inactive: -1.21

SMILES: CNC1CCc2[nH]c3ccc(C(N)=O)cc3c2C1 (stereo not drawn)
- TEAD-luciferase reporter activity (compound concentration: 200 nM): inactive: -0.548
- TEAD-luciferase reporter activity (compound concentration: 2 uM): inactive: -0.322
- TEAD-luciferase reporter activity (compound concentration: 10 uM): inactive: -0.41

SMILES: C[C@@H](Nc1cc(NS(=O)(=O)N2CCC2)nc(SCc2cccc(F)c2F)n1)[C@@H](O)CO
- TEAD-luciferase reporter activity (compound concentration: 200 nM): inactive: -0.832
- TEAD-luciferase reporter activity (compound concentration: 2 uM): inactive: -0.587
- TEAD-luciferase reporter activity (compound concentration: 10 uM): inactive: -0.575

SMILES: CC[C@@H]1SC2(CCN(C)CC2)NC1=O
- TEAD-luciferase reporter activity (compound concentration: 200 nM): inactive: -0.702
- TEAD-luciferase reporter activity (compound concentration: 2 uM): inactive: 0.744
- TEAD-luciferase reporter activity (compound concentration: 10 uM): inactive: -1.66

SMILES: CC[N+](CC)(CCNC(=O)C(=O)NCC[N+](CC)(CC)Cc1ccccc1Cl)Cc1ccccc1Cl
- TEAD-luciferase reporter activity (compound concentration: 200 nM): inactive: 1.84
- TEAD-luciferase reporter activity (compound concentration: 2 uM): inactive: -2.1
- TEAD-luciferase reporter activity (compound concentration: 10 uM): inactive: 2.86

SMILES: Cn1ncc2cc(-c3cc(CCC(=O)O)cc(N)c3OC3Cc4ccccc4C3)ccc21
- TEAD-luciferase reporter activity (compound concentration: 200 nM): inactive: 1.98
- TEAD-luciferase reporter activity (compound concentration: 2 uM): inactive: -1.41
- TEAD-luciferase reporter activity (compound concentration: 10 uM): inactive: -0.0274
